# Assay results taken from the supplement of paper PMC10849652.
# Amino acid sequences for entries named in this document (tags omitted). A change or cut given only in a name is not applied to a line headed by its entry.
# UniProt Q9BT22: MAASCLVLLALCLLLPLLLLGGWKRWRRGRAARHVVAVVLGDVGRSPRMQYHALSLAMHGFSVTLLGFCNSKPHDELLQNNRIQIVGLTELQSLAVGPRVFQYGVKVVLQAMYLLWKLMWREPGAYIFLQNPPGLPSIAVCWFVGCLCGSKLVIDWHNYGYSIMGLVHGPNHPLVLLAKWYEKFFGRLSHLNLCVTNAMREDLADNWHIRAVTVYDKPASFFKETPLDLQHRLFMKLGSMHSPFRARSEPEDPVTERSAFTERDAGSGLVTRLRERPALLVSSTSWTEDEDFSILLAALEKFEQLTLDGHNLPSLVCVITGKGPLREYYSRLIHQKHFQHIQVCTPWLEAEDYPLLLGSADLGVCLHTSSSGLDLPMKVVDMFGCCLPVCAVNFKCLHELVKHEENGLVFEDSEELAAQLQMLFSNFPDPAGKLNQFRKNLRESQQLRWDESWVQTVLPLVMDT
# UniProt P20073: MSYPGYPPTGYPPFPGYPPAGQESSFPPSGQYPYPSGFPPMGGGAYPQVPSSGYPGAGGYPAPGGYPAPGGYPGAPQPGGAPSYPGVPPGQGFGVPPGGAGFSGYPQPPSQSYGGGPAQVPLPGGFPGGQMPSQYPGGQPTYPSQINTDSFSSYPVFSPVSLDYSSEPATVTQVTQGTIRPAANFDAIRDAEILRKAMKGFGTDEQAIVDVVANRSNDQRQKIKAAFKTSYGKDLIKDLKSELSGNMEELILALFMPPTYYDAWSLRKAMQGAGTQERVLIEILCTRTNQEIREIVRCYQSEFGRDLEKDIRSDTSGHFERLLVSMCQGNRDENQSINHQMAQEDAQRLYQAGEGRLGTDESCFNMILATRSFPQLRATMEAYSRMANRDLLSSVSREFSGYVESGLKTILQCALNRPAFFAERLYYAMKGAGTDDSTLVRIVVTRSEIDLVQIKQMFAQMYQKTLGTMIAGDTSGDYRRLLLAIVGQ
# UniProt Q01432: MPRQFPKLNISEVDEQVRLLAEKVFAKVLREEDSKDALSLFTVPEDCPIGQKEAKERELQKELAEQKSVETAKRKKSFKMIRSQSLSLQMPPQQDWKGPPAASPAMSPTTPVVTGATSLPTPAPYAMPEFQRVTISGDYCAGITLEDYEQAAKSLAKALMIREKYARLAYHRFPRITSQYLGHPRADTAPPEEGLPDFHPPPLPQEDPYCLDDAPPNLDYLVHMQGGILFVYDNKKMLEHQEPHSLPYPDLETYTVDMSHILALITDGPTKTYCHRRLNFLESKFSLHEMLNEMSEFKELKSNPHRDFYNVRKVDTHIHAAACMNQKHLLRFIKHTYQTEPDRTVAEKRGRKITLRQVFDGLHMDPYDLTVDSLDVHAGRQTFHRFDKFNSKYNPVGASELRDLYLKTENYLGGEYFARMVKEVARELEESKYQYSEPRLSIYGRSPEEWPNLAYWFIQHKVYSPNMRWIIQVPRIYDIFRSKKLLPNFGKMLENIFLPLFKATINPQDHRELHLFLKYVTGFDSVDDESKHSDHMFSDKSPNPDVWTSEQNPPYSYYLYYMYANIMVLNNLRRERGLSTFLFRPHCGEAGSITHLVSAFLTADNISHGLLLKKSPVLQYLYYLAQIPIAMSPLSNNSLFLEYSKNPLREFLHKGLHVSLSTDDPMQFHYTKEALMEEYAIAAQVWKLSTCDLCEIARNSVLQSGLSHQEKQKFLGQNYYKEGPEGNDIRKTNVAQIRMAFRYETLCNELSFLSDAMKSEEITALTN
# UniProt Q92572: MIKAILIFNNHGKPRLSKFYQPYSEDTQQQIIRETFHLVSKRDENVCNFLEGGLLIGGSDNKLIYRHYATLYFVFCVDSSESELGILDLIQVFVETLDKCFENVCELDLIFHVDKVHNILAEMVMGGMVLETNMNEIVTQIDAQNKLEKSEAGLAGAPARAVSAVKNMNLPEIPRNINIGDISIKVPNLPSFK
# UniProt O75179: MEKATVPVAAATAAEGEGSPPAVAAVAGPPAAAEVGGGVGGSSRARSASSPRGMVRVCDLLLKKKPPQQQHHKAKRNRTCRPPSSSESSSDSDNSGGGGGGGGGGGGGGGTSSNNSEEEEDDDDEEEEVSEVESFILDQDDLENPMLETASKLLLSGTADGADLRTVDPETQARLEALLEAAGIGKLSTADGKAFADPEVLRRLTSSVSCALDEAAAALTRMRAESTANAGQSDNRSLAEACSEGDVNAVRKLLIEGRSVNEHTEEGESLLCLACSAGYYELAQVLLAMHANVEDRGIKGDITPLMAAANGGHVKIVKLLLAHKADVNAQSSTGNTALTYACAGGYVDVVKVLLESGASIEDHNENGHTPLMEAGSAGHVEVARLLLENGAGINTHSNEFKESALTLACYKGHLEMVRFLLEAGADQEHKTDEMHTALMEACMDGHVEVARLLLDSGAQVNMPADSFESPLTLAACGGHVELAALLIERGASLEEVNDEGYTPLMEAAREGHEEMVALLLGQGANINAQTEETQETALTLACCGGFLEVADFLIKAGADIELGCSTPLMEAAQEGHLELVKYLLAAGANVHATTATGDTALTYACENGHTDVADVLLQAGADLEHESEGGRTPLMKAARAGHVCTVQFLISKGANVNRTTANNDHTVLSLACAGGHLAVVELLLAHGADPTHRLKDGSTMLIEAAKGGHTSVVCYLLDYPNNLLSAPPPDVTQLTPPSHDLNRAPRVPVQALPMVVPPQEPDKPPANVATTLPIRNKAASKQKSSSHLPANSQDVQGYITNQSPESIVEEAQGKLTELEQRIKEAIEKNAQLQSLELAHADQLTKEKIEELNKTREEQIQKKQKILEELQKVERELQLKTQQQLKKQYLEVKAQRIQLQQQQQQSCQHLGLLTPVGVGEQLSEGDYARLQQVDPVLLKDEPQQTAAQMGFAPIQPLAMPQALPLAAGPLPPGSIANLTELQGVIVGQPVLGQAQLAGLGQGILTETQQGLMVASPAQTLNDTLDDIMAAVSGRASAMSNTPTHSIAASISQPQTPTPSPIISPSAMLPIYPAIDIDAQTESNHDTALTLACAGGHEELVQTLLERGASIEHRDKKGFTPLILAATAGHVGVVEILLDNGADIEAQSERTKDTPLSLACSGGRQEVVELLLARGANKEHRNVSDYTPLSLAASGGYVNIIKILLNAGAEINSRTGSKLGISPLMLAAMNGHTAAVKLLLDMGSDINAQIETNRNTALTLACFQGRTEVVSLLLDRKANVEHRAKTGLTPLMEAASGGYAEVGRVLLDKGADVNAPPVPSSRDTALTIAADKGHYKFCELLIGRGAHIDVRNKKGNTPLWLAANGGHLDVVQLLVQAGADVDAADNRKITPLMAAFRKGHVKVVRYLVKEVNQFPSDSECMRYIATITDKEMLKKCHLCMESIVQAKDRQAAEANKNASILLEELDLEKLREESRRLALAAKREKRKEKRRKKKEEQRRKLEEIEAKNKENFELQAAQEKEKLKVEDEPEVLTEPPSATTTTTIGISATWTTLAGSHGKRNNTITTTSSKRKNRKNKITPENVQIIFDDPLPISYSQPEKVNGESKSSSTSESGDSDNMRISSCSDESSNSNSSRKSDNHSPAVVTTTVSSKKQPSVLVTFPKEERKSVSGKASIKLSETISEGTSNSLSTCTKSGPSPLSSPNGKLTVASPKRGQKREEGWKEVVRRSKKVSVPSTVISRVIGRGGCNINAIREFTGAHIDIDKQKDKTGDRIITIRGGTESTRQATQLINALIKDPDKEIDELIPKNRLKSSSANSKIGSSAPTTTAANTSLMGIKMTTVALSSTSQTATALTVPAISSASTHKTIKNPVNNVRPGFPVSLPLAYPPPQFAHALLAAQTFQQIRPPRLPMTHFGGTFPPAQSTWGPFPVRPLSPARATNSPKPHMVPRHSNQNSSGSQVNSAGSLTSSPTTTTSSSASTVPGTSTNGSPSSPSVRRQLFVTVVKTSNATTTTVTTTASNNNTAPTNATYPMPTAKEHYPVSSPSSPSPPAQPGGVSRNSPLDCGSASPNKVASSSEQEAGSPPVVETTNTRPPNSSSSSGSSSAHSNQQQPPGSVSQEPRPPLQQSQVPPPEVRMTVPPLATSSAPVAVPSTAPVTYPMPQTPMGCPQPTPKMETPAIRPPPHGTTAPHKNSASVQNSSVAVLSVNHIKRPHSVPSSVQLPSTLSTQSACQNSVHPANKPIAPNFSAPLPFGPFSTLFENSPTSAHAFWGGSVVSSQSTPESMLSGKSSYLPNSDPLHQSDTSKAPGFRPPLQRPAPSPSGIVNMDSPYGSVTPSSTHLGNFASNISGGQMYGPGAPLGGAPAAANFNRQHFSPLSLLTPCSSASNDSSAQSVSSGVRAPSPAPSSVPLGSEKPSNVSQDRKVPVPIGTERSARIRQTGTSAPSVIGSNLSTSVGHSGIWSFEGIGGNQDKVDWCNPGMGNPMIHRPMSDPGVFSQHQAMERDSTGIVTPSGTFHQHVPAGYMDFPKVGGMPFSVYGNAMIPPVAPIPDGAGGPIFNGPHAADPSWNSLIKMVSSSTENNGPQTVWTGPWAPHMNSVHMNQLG
# UniProt Q9H553: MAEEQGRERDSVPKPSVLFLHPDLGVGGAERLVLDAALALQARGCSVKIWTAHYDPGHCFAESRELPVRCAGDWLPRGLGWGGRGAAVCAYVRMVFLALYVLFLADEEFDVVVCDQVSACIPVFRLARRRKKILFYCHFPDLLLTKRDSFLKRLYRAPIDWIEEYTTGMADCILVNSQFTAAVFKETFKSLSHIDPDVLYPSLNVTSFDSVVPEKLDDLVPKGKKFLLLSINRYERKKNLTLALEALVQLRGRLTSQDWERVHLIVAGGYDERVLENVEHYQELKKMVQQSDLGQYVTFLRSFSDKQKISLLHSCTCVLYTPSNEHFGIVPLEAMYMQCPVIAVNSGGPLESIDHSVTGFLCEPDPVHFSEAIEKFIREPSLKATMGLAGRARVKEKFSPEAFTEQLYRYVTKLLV
# UniProt Q02252: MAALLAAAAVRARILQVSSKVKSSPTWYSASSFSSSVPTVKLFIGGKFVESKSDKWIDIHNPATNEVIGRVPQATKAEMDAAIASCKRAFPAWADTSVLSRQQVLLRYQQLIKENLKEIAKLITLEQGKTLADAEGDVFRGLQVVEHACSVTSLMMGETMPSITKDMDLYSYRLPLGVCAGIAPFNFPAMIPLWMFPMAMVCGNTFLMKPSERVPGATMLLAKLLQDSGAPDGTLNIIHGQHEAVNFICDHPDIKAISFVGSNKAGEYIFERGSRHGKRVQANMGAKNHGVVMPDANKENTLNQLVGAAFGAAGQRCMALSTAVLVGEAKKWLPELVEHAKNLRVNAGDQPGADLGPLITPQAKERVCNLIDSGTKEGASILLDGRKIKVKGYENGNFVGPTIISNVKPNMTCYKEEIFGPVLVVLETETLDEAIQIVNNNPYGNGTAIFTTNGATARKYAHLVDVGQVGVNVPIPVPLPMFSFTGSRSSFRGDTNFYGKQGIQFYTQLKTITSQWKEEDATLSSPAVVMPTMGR
# UniProt O00203: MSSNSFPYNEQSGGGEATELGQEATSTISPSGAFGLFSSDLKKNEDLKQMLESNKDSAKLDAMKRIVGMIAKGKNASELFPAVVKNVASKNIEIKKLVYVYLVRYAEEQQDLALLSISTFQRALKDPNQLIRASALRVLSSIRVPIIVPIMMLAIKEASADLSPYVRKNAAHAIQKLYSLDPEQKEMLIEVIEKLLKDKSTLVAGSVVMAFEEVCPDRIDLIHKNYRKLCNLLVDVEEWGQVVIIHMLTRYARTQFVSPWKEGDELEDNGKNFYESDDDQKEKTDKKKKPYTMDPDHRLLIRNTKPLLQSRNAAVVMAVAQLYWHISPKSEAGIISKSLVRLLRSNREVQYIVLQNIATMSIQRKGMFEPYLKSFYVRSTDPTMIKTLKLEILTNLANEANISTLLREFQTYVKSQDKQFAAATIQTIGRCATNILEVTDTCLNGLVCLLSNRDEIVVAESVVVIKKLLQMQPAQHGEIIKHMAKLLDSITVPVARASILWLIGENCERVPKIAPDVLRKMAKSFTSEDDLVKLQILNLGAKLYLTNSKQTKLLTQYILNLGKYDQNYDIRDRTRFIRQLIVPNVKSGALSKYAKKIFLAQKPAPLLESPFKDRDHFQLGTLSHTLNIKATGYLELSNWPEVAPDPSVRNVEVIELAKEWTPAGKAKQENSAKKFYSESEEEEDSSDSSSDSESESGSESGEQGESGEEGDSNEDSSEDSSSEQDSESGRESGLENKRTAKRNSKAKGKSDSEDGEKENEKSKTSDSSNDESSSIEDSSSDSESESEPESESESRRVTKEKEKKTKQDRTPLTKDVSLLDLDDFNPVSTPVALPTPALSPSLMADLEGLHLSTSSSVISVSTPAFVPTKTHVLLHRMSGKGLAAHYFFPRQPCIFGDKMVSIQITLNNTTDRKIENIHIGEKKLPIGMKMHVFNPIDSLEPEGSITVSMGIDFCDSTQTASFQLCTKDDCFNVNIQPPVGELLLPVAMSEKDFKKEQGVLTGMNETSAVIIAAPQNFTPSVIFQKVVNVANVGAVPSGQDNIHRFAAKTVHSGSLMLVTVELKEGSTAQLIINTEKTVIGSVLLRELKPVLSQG
# The other results are listed elsewhere or left out.
# Assays:
# Test in all cases: log2 fold change, soluble protein after heating vs DMSO (PISA); higher = thermal stabilisation; K562 lysate, 10 uM; active = over 0.2 and 3.5 SD of the protein, either way, in both replicates (recomputed)
# [1] = compound: CN1CC[C@H](c2c(O)cc(O)c3c(=O)cc(-c4ccccc4Cl)oc23)[C@H](O)C1 [alvocidib]
# Outline: (§1)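 K562 pellets were dounce-homogenised in PBS pH 7.4 containing 1 mM MgCl2, and the crude extract, at 1 mg/mL protein, was exposed to 10 μM compound for 30 min. Aliquots were heated for 3 min across 48°C-58°C, pooled, brought to 0.5% NP-40 at 4°C and spun at 21,000xg for 90 min, with the supernatant taken as soluble protein. TMTpro 16plex LC-MS/MS with equalised channel sums quantified that protein. Values are log-two fold changes in thermal stability relative to solvent controls, taken from duplicates.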
# [2] = compound: CN1CCc2c(c3ccccc3n2Cc2ccc(C(=O)NO)cc2)C1 [Tubastatin A]
# Outline: as §1
# [3] = compound: CNC(=O)C1=CC=CC=C1NC2=NC(=NC=C2Cl)NC3=C(C=C(C=C3)N4CCOCC4)OC
# Outline: as §1
# [4] = compound: CNC(=O)c1ccc(Nc2ncc(C(F)(F)F)c(NCc3nccnc3N(C)S(C)(=O)=O)n2)cc1 [defactinib]
# Outline: as §1
# [5] = compound: CNc1nc(-c2ccc3c(N)n[nH]c3c2)cc(N2C[C@@H](C(=O)NC3CCCCC3)CC[C@H]2C)n1
# Outline: as §1
# [6] = compound: COC(=O)N[C@@H](C)CNc1nccc(-c2cn(C(C)C)nc2-c2cc(Cl)cc(NS(C)(=O)=O)c2F)n1 [encorafenib]
# Outline: as §1
# [7] = compound: COC(=O)[C@H](CCSC)NC(=O)C1=C(C=C(C=C1)NC[C@H](CS)N)C2=CC=CC=C2
# Outline: as §1
# [8] = compound: COc1cc(Nc2ncc3c(n2)-c2ccc(Cl)cc2C(c2c(F)cccc2OC)=NC3)ccc1C(=O)O [alisertib]
# Outline: as §1
# [9] = compound: COc1cc2nc(-c3cc(F)ccc3O)nc(N[C@@H]3CNC[C@H]3C(C)(C)O)c2cc1OC
# Outline: as §1
# [10] = compound: COc1cc2ncnc(Nc3ccc(F)c(Cl)c3)c2cc1OCCCN1CCOCC1 [gefitinib]
# Outline: as §1
# [11] = compound: CS(=O)(=O)CCNCc1ccc(-c2ccc3ncnc(Nc4ccc(OCc5cccc(F)c5)c(Cl)c4)c3c2)o1 [lapatinib]
# Outline: as §1
# [12] = compound: CS(=O)(=O)N1CCN(Cc2cc3nc(-c4cccc5[nH]ncc45)nc(N4CCOCC4)c3s2)CC1 [pictilisib]
# Outline: as §1
# [13] = compound: C[C@@H](Oc1cc(-c2cnn(C3CCNCC3)c2)cnc1N)c1c(Cl)ccc(F)c1Cl [crizotinib]
# Outline: as §1
# [14] = compound: C[C@H](C1=CC=C(C=C1)C(=O)NC2=C3C=CNC3=NC=C2)N
# Outline: as §1
# [15] = compound: C[C@H](Nc1ncnc2nc[nH]c12)c1cc2cccc(Cl)c2c(=O)n1-c1ccccc1 [duvelisib]
# Outline: as §1
# [16] = compound: Cc1cc(Nc2cc(CN3CCOCC3)c3nc(C)c(Cc4ccc(Cl)cc4F)n3n2)n[nH]1 [gandotinib]
# Outline: as §1
# [17] = compound: Cc1cc(Nc2cc(N3CCN(C)CC3)nc(Sc3ccc(NC(=O)C4CC4)cc3)n2)n[nH]1 [tozasertib]
# Outline: as §1
# [18] = compound: Cc1ccc(-n2nc(C(C)(C)C)cc2NC(=O)Nc2ccc(OCCN3CCOCC3)c3ccccc23)cc1 [doramapimod]
# Outline: as §1
# [19] = compound: Cc1ccc(NC(=O)c2ccc(CN3CC[C@H](N(C)C)C3)c(C(F)(F)F)c2)cc1Nc1nccc(-c2cncnc2)n1 [bafetinib]
# Outline: as §1
# [20] = compound: Cc1cccc(CC(=O)N2CCc3c2ccc(-c2cn(C)c4ncnc(N)c24)c3F)n1
# Outline: as §1
Target,log2 fold change [1],log2 fold change [2],log2 fold change [3],log2 fold change [4],log2 fold change [5],log2 fold change [6],log2 fold change [7],log2 fold change [8],log2 fold change [9],log2 fold change [10],log2 fold change [11],log2 fold change [12],log2 fold change [13],log2 fold change [14],log2 fold change [15],log2 fold change [16],log2 fold change [17],log2 fold change [18],log2 fold change [19],log2 fold change [20]
ALG1 (UniProt Q9BT22),inactive: 0.042,inactive: -0.004,inactive: 0.042,inactive: -0.02,inactive: 0.009,inactive: 0.005,inactive: -0.068,inactive: -0.065,inactive: 0.064,inactive: 0.019,inactive: 0.061,inactive: 0.115,inactive: -0.009,inactive: 0.06,inactive: 0.005,inactive: -0.092,inactive: 0.055,inactive: 0.008,inactive: -0.016,inactive: 0.147
ALDH4A1 (UniProt P30038),inactive: 0.017,inactive: -0.05,inactive: 0.026,inactive: -0.025,inactive: 0.067,inactive: -0.036,inactive: 0.114,inactive: -0.03,inactive: -0.012,inactive: -0.001,inactive: 0.047,inactive: -0.017,inactive: -0.022,inactive: 0.015,inactive: 0.045,inactive: -0.03,inactive: -0.002,inactive: -0.026,inactive: -0.023,inactive: 0.037
ANXA7 (UniProt P20073),inactive: 0.007,inactive: -0.006,inactive: 0.012,inactive: -0.037,inactive: -0.055,inactive: -0.029,inactive: 0.023,inactive: 0.013,inactive: -0.003,inactive: -0.022,inactive: 0.002,inactive: -0.003,inactive: -0.011,inactive: -0.025,inactive: -0.052,inactive: -0.005,inactive: -0.016,inactive: 0.013,inactive: 0.05,inactive: -0.016
AMPD3 isoform 4 (UniProt Q01432),inactive: 0.012,inactive: 0.027,inactive: 0.015,inactive: 0.011,inactive: -0.034,inactive: -0.013,inactive: 0.103,inactive: 0.008,inactive: -0.068,inactive: 0.012,inactive: 0.037,inactive: -0.015,inactive: 0.014,inactive: 0.109,inactive: -0.053,inactive: -0.057,inactive: 0.001,inactive: 0.002,inactive: -0.002,inactive: -0.047
ALMS1 (UniProt Q8TCU4),inactive: -0.083,inactive: 0.021,inactive: 0.02,inactive: 0.169,inactive: 0.126,inactive: 0.065,inactive: 0.04,inactive: -0.02,inactive: 0.001,inactive: -0.174,inactive: -0.096,inactive: -0.095,inactive: -0.061,inactive: -0.037,inactive: 0.039,inactive: 0.047,inactive: -0.052,inactive: -0.007,inactive: -0.048,inactive: 0.049
AP3S1 (UniProt Q92572),inactive: 0.001,inactive: -0.027,inactive: 0.008,inactive: -0.002,inactive: 0.061,inactive: 0.119,inactive: -0.137,inactive: 0.008,inactive: 0.04,inactive: 0.022,inactive: -0.015,inactive: 0.013,inactive: 0.006,inactive: -0.046,inactive: -0.009,inactive: 0.018,inactive: -0.022,inactive: 0.041,inactive: -0.015,inactive: 0.092
ALDH16A1 (UniProt Q8IZ83),inactive: -0.021,inactive: -0.003,inactive: -0.01,inactive: 0.001,inactive: 0.003,inactive: 0.022,inactive: -0.016,inactive: -0.034,inactive: -0.014,inactive: -0.012,inactive: 0.019,inactive: -0.028,inactive: -0.008,inactive: -0.037,inactive: 0.015,inactive: 0.025,inactive: 0.019,inactive: 0.005,inactive: 0.04,inactive: 0.018
ANKRD17 (UniProt O75179),inactive: -0.013,inactive: -0.042,inactive: -0.013,inactive: 0.003,inactive: -0.057,inactive: 0.038,inactive: 0.026,inactive: 0.029,inactive: -0.015,inactive: 0.012,inactive: -0.012,inactive: -0.03,inactive: -0.043,inactive: -0.059,inactive: 0.02,inactive: 0.031,inactive: -0.017,inactive: -0.125,inactive: -0.032,inactive: 0.051
ALDH1A1 (UniProt P00352),inactive: 0.06,inactive: -0.004,inactive: 0.004,inactive: -0.007,inactive: -0.037,inactive: -0.009,inactive: -0.043,inactive: 0.01,inactive: -0.001,inactive: -0.017,inactive: 0.002,inactive: -0.068,inactive: 0.004,inactive: 0.05,inactive: -0.023,inactive: -0.111,inactive: -0.006,inactive: -0.015,inactive: 0.061,inactive: -0.164
ALDH1A2 (UniProt O94788),inactive: 0.027,inactive: 0.057,inactive: -0.034,inactive: -0.027,inactive: -0.008,inactive: -0.014,inactive: -0.001,inactive: 0.009,inactive: -0.013,inactive: -0.007,inactive: 0.012,inactive: 0.001,inactive: 0.002,inactive: -0.01,inactive: 0.046,inactive: -0.001,inactive: -0.001,inactive: 0.006,inactive: 0.079,inactive: 0.013
ALG2 (UniProt Q9H553),inactive: 0.07,inactive: -0.061,inactive: 0.011,inactive: -0.077,inactive: 0.097,inactive: -0.065,inactive: -0.058,inactive: 0.04,inactive: 0.049,inactive: 0.026,inactive: 0.003,inactive: -0.229,inactive: 0.015,inactive: -0.053,inactive: 0.014,inactive: -0.131,inactive: 0.127,inactive: -0.034,inactive: 0.024,inactive: 0.015
ALKBH4 (UniProt Q9NXW9),inactive: 0.029,inactive: -0.093,inactive: -0.003,inactive: 0.166,inactive: 0.026,inactive: 0.053,inactive: -0.02,inactive: 0.019,inactive: -0.03,inactive: 0.044,inactive: -0.02,inactive: 0.003,inactive: 0.04,inactive: -0.055,inactive: 0.035,inactive: -0.019,inactive: 0.047,inactive: -0.018,inactive: -0.108,inactive: -0.028
ALDH6A1 (UniProt Q02252),inactive: -0.044,active: 0.43,inactive: 0.106,inactive: 0.018,inactive: 0.091,inactive: -0.015,inactive: 0.103,inactive: 0.086,inactive: 0.061,inactive: 0.098,inactive: -0.04,inactive: -0.028,inactive: -0.023,inactive: -0.032,inactive: 0.073,inactive: -0.033,inactive: 0.021,inactive: -0.017,inactive: 0.122,inactive: -0.001
ALDH5A1 isoform 2 (UniProt P51649),inactive: 0.063,inactive: 0.048,inactive: 0.007,inactive: 0.016,inactive: -0.02,inactive: -0.028,inactive: 0.077,inactive: 0.001,inactive: 0.006,inactive: -0.042,inactive: -0.012,inactive: -0.049,inactive: -0.044,inactive: 0,inactive: -0.056,inactive: -0.059,inactive: 0.005,inactive: -0.011,inactive: 0.008,inactive: -0.035
AP3B1 (UniProt O00203),inactive: -0.013,inactive: -0.031,inactive: 0.008,inactive: 0.019,inactive: 0.047,inactive: 0.029,inactive: 0.028,inactive: 0.011,inactive: -0.001,inactive: -0.008,inactive: 0.003,inactive: 0,inactive: -0.016,inactive: -0.024,inactive: -0.002,inactive: 0.02,inactive: 0.034,inactive: 0.031,inactive: -0.017,inactive: 0.031
AP1M1 (UniProt Q9BXS5),inactive: -0.009,inactive: 0.007,inactive: -0.004,inactive: 0.013,inactive: -0.033,inactive: 0.011,inactive: 0.001,inactive: 0.001,inactive: 0.011,inactive: 0.014,inactive: 0.009,inactive: -0.008,inactive: 0.035,inactive: -0.051,inactive: 0.018,inactive: 0.024,inactive: -0.016,inactive: 0.027,inactive: -0.021,inactive: 0.016

# No new results follow: an excerpt of the list.
Target,log2 fold change [1],log2 fold change [2],log2 fold change [3],log2 fold change [4],log2 fold change [5],log2 fold change [6],log2 fold change [7],log2 fold change [8],log2 fold change [9],log2 fold change [10],log2 fold change [11],log2 fold change [12],log2 fold change [13],log2 fold change [14],log2 fold change [15],log2 fold change [16],log2 fold change [17],log2 fold change [18],log2 fold change [19],log2 fold change [20]
ALG2 (UniProt Q9H553),inactive: 0.07,inactive: -0.061,inactive: 0.011,inactive: -0.077,inactive: 0.097,inactive: -0.065,inactive: -0.058,inactive: 0.04,inactive: 0.049,inactive: 0.026,inactive: 0.003,inactive: -0.229,inactive: 0.015,inactive: -0.053,inactive: 0.014,inactive: -0.131,inactive: 0.127,inactive: -0.034,inactive: 0.024,inactive: 0.015
ALKBH4 (UniProt Q9NXW9),inactive: 0.029,inactive: -0.093,inactive: -0.003,inactive: 0.166,inactive: 0.026,inactive: 0.053,inactive: -0.02,inactive: 0.019,inactive: -0.03,inactive: 0.044,inactive: -0.02,inactive: 0.003,inactive: 0.04,inactive: -0.055,inactive: 0.035,inactive: -0.019,inactive: 0.047,inactive: -0.018,inactive: -0.108,inactive: -0.028
ALDH6A1 (UniProt Q02252),inactive: -0.044,active: 0.43,inactive: 0.106,inactive: 0.018,inactive: 0.091,inactive: -0.015,inactive: 0.103,inactive: 0.086,inactive: 0.061,inactive: 0.098,inactive: -0.04,inactive: -0.028,inactive: -0.023,inactive: -0.032,inactive: 0.073,inactive: -0.033,inactive: 0.021,inactive: -0.017,inactive: 0.122,inactive: -0.001
ALDH5A1 isoform 2 (UniProt P51649),inactive: 0.063,inactive: 0.048,inactive: 0.007,inactive: 0.016,inactive: -0.02,inactive: -0.028,inactive: 0.077,inactive: 0.001,inactive: 0.006,inactive: -0.042,inactive: -0.012,inactive: -0.049,inactive: -0.044,inactive: 0,inactive: -0.056,inactive: -0.059,inactive: 0.005,inactive: -0.011,inactive: 0.008,inactive: -0.035
